Reference: paper PMC7801519
These are yes or no findings as the source states them, for the method shown. Binding seen in cells or lysates may run through a third protein. Some binding calls cover weakened binding; strength is not graded here. Blank lines part the entries; values can stand above or below the binder they belong to.

Experiments:
[1] = target: T1, MSL1, endogenous in NPC cell lines (human (endogenous in CNE2, SUNE1, CNE1 and HK1)) (UniProt Q68DK7); assay: co-IP; endogenous proteins; precipitated with an anti-MSL1 antibody, blotted for MSL2, MSL3 and KAT8; CNE1 and HK1 stable PBK-overexpression or control lines; CNE2 and SUNE1 cells with PBK siRNAs or NC for 48 h; IP lysis buffer, overnight at 4 °C
T1 sequence: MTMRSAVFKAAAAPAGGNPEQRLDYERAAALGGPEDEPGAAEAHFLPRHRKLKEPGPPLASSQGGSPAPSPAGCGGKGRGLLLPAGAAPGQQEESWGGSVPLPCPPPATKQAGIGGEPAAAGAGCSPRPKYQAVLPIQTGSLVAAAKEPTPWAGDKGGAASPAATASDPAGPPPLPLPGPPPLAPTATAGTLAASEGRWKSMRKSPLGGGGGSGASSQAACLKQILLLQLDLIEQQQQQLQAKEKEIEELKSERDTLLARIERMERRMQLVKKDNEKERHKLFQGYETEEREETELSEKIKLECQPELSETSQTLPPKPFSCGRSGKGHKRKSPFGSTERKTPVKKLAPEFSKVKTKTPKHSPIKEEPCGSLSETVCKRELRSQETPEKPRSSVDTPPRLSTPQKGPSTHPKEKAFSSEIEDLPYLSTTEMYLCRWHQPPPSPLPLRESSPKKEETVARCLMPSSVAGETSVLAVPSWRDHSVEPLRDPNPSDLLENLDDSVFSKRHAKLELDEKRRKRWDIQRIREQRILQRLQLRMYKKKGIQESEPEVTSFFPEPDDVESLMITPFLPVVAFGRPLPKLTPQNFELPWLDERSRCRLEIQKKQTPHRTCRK

[2] = target: T2, PBK, endogenous in CNE2 and SUNE1 cells (human (endogenous in CNE2 and SUNE1)) (UniProt Q96KB5); assay: co-IP; endogenous proteins of CNE2 and SUNE1 cells; precipitated with an anti-PBK antibody, blotted with anti-MSL1; IP lysis buffer, overnight at 4 °C
T2 sequence: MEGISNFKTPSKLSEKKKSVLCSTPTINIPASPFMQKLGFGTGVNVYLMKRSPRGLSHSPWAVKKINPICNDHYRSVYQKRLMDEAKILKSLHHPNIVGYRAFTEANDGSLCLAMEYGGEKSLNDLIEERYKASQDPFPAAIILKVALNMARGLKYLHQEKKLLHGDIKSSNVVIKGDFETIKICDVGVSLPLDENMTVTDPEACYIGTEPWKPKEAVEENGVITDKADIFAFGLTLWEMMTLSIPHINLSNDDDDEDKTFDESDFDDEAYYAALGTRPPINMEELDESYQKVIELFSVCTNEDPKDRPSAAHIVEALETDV

binding [1]: binds
B1: MSL2, endogenous in NPC cell lines (protein, UniProt Q9HCI7 1-577)
chain: MNPVNATALYISASRLVLNYDPGDPKAFTEINRLLPYFRQSLSCCVCGHLLQDPIAPTNSTCQHYVCKTCKGKKMMMKPSCSWCKDYEQFEENKQLSILVNCYKKLCEYITQTTLARDIIEAVDCSSDILALLNDGSLFCEETEKPSDSSFTLCLTHSPLPSTSEPTTDPQASLSPMSESTLSIAIGSSVINGLPTYNGLSIDRFGINIPSPEHSNTIDVCNTVDIKTEDLSDSLPPVCDTVATDLCSTGIDICSFSEDIKPGDSLLLSVEEVLRSLETVSNTEVCCPNLQPNLEATVSNGPFLQLSSQSLSHNVFMSTSPALHGLSCTAATPKIAKLNRKRSRSESDSEKVQPLPISTIIRGPTLGASAPVTVKRESKISLQPIATVPNGGTTPKISKTVLLSTKSMKKSHEHGSKKSHSKTKPGILKKDKAVKEKIPSHHFMPGSPTKTVYKKPQEKKGCKCGRATQNPSVLTCRGQRCPCYSNRKACLDCICRGCQNSYMANGEKKLEAFAVPEKALEQTRLTLGINVTSIAVRNASTSTSVINVTGSPVTTFLAASTHDDKSLDEAIDMRFDC

binding [2]: binds
B2: MSL1, endogenous in NPC cell lines (protein, UniProt Q68DK7 1-614)
chain: T1 sequence
